Measurements reported in PubChem BioAssay AID1224830 (NIAID, 2016).
Shown is a random part of about 18,000 deposited reagents. In the full data, about 2,900 (16%) were called active. 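Calls are made per well; low scores hint the gene aids the LPS response, high scores that it dampens it.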 Entries without a mark were called inactive. Repeated entries: four replicate wells of each siRNA pool.

- Test: 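Host factors that control LPS-induced TNF expression in human macrophages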 (primary screen)
- Cells: human THP-1 monocytic leukaemia cells, TNF dual-luciferase reporter clone, PMA-differentiated to macrophage-like cells
- Knock-down reagent: siRNA pool against human genes, 50 nM
- Duration: LPS for 4 h, given about 3 days after siRNA transfection
- Treatment: bacterial LPS (TLR4 ligand), 10 ng/ml
- Measured: 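Ratio of firefly to renilla light, scaled to the plate median and expressed as a robust z-score per replicate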
- Reading the numbers: TNF reporter robust z-score: higher = stronger TNF reporter response to LPS
- Call rule: 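Each well counts as active if its z-score is over 2.8 or under -1.5; controls are left without a call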

Against GPR52 (GeneID 9293) [SID315453180], the values are TNF reporter robust z-score -0.02.
GPR52 (GeneID 9293) [SID315453180] gave TNF reporter robust z-score 0.4.
For GPR52 (GeneID 9293) [SID315453180], the entry reads TNF reporter robust z-score 0.05.
For GPR52 (GeneID 9293) [SID315453180], the values are TNF reporter robust z-score -0.13.
Against UBA6 (GeneID 55236) [SID315457522], the values are TNF reporter robust z-score -1.19.
With knock-down of UBA6 (GeneID 55236) [SID315457522] the results were TNF reporter robust z-score 1.77.
Against UBA6 (GeneID 55236) [SID315457522], the values are TNF reporter robust z-score 0.56.
UBA6 (GeneID 55236) [SID315457522] showed TNF reporter robust z-score 0.16.
ZNF215 (GeneID 7762) [SID315452285] gave TNF reporter robust z-score 1.38.
With knock-down of ZNF215 (GeneID 7762) [SID315452285] the results were TNF reporter robust z-score 1.64.
ZNF215 (GeneID 7762) [SID315452285] scored TNF reporter robust z-score 1.37.
Silencing of ZNF215 (GeneID 7762) [SID315452285] gave: TNF reporter robust z-score 1.17.
TCERG1L (GeneID 256536) [SID315463529] gave TNF reporter robust z-score -1.11.
Against TCERG1L (GeneID 256536) [SID315463529] the deposit lists TNF reporter robust z-score -0.81.
TCERG1L (GeneID 256536) [SID315463529] showed TNF reporter robust z-score -0.49.
Silencing of TCERG1L (GeneID 256536) [SID315463529] came out at: TNF reporter robust z-score -0.47.

6 neighbouring entries from above, for reference:
UBA6 (GeneID 55236) [SID315457522]: TNF reporter robust z-score = 0.16
ZNF215 (GeneID 7762) [SID315452285]: TNF reporter robust z-score = 1.38
ZNF215 (GeneID 7762) [SID315452285]: TNF reporter robust z-score = 1.64
ZNF215 (GeneID 7762) [SID315452285]: TNF reporter robust z-score = 1.37
ZNF215 (GeneID 7762) [SID315452285]: TNF reporter robust z-score = 1.17
TCERG1L (GeneID 256536) [SID315463529]: TNF reporter robust z-score = -1.11

Next entries follow:
Depletion of PDSS1 (GeneID 23590) [SID315455352] came out at: TNF reporter robust z-score -0.9.
Against PDSS1 (GeneID 23590) [SID315455352], the entry reads TNF reporter robust z-score -1.22.
Against PDSS1 (GeneID 23590) [SID315455352], the entry reads TNF reporter robust z-score -0.95.
Against PDSS1 (GeneID 23590) [SID315455352], the entry reads TNF reporter robust z-score -1.04.
Silencing of RASL12 (GeneID 51285) [SID315456611] came out at: TNF reporter robust z-score 0.89.
Depletion of RASL12 (GeneID 51285) [SID315456611] resulted in: TNF reporter robust z-score 1.51.
Knock-down of RASL12 (GeneID 51285) [SID315456611] gave: TNF reporter robust z-score 0.3.
With knock-down of RASL12 (GeneID 51285) [SID315456611], the record shows TNF reporter robust z-score 1.32.
Knock-down of PROM2 (GeneID 150696) [SID315462464] resulted in: TNF reporter robust z-score -0.89.
Against PROM2 (GeneID 150696) [SID315462464], the entry reads TNF reporter robust z-score -0.72.
After knock-down of PROM2 (GeneID 150696) [SID315462464] the results were TNF reporter robust z-score -0.27.
PROM2 (GeneID 150696) [SID315462464] gave TNF reporter robust z-score -0.61.
Knock-down of DCAF8L1 (GeneID 139425) [SID315462076] gave: TNF reporter robust z-score -0.89.
With knock-down of DCAF8L1 (GeneID 139425) [SID315462076], the record shows TNF reporter robust z-score -0.52.
DCAF8L1 (GeneID 139425) [SID315462076] gave TNF reporter robust z-score 0.31.
Against PROZ (GeneID 8858) [SID315452880], the entry reads TNF reporter robust z-score -0.13.
Against PROZ (GeneID 8858) [SID315452880], the values are TNF reporter robust z-score 0.36.
Silencing of PROZ (GeneID 8858) [SID315452880] came out at: TNF reporter robust z-score -0.11.
PROZ (GeneID 8858) [SID315452880] showed TNF reporter robust z-score -1.44.
